Source: PubChem BioAssay AID540276 (National Center for Advancing Translational Sciences (NCATS), 2011)
Out of some 300,000 compounds screened, about 5,400 (1.8%) were called active. Inconclusive results, whose numbers are uncertain, are shown with a selection of clear calls. The call rests on the fitted dose curve; tested in HEK293 cells. Where the call is inconclusive, the potency comes from a doubtful curve fit.

Assay: qHTS for inhibitors of binding or entry into cells for Marburg Virus
Details: Marburg virus pseudotyped entry inhibition, cell reporter; series mostly up to 37.8 µM
Potency means the concentration at half of the fitted maximal effect.

Row | Compound | Potency
1 | Cc1cnc(CN(C)Cc2c(C(=O)N3CCc4ccccc4C3)nc3ccc(Cl)cn23)[nH]1 | inconclusive: 14.1 µM [inhibitor, partial curve, poor fit]
2 | CCC(Oc1ccccc1F)C(=O)Nc1cc(-c2ccccc2)no1 (centres undefined) | inconclusive: 17.8 µM [activator, single point]
3 | Cc1ccc(S(=O)(=O)c2nc(S(=O)(=O)CCO)sc2N2CCOCC2)cc1 | inconclusive: 4.47 µM [inhibitor, single point]
4 | Cc1ccc(S(=O)(=O)N2CCN(C(=O)CN3CCCCC3)C2C(C)C)cc1 (centres undefined) | inconclusive: 0.651 µM [inhibitor, full curve, poor fit]
5 | CC(=O)c1ccc(NC(=O)c2cccc(NC(=O)c3ccccc3)c2)cc1 | inconclusive: 0.355 µM [inhibitor, single point]
6 | CCOC(=O)Cc1csc(NC(=O)Nc2ccc(Cl)cc2)n1 | inconclusive: 12.6 µM [inhibitor, partial curve, poor fit]
7 | CC1Cc2cc(/C(O)=C3\C(=O)C(=O)N(Cc4ccncc4)C3c3ccccc3F)ccc2O1 (centres undefined) | inactive
8 | Cc1ccc2[nH]c(=O)c(C(c3nnnn3C3CCCC3)N3CCCc4ccccc43)cc2c1 (centres undefined) | active: 5.8 µM
9 | C/C(=N\NC(=O)COc1ccc(C(C)(C)C)cc1)c1ccc(OC(F)F)cc1 | inconclusive: 2.82 µM [inhibitor, single point]
10 | CN(C)c1nc(SCC(=O)Nc2ccccc2)nc(N2CCOCC2)n1 | inactive
11 | COc1cc(F)ccc1S(=O)(=O)N1CCN(C23CC4CC(CC(C4)C2)C3)CC1 | inconclusive: 4.61 µM [inhibitor, full curve]
12 | COC(=O)c1nn(-c2nc(-c3cccc(OC)c3)cc(C(F)(F)F)n2)cc1[N+](=O)[O-] | inactive
13 | COC(=O)C1=C(C)OC(N)=C(C#N)C1c1ccccc1F (centres undefined) | inconclusive: 0.103 µM [activator, full curve, poor fit]
14 | Cc1ccc(-c2csc(N=C(N)N)n2)c(C)c1 | inconclusive: 35.5 µM [inhibitor, single point]
15 | COC(=O)c1ccc(NC(=O)CSc2nncn2-c2ccccn2)cc1 | inactive
16 | CC(C)c1nc(SCC(=O)Nc2cccc3ccccc23)n[nH]1 | inconclusive: 0.447 µM [activator, single point]
17 | C=CCn1c(SCC(=O)Nc2ccc(O)cc2)nc2sc(CC)cc2c1=O | inconclusive: 11.2 µM [inhibitor, single point]
18 | COc1ccc(/C=N/OC/C(O)=C(\C#N)c2nc3ccccc3[nH]2)cc1 | inconclusive: 16.4 µM [inhibitor, single point]
19 | NS(=O)(=O)c1ccc(N=Nc2c(=O)[nH]n3c(=O)c4c([nH]c23)CCCC4)cc1 | inactive
20 | O=S(=O)(c1ccc(F)cc1)n1cnc2ccccc21 | inconclusive: 28.2 µM [inhibitor, single point]
21 | Cc1cc(NC2CCCCC2)nc(-n2nc(C)cc2C)n1 | inconclusive: 25.9 µM [inhibitor, partial curve, poor fit]
22 | CCCC1=[N+](CC(=O)c2ccccc2)CCn2cccc21 | inconclusive: 11.2 µM [inhibitor, partial curve, poor fit]

By substructure: the compounds so far containing a Cl atom.
Row | Compound | Potency
1 | Cc1cnc(CN(C)Cc2c(C(=O)N3CCc4ccccc4C3)nc3ccc(Cl)cn23)[nH]1 | inconclusive: 14.1 µM [inhibitor, partial curve, poor fit]
6 | CCOC(=O)Cc1csc(NC(=O)Nc2ccc(Cl)cc2)n1 | inconclusive: 12.6 µM [inhibitor, partial curve, poor fit]

Going on with the list.

Row | Compound | Potency
23 | O=C(CN1CCN(C(C(=O)Nc2ccc(F)cc2)c2ccccc2)CC1)NC1CC1 (centres undefined) | inactive
24 | COc1ccc(-c2cc(C(=O)N3CCN(C(c4ccccc4)c4ccccc4)CC3)no2)cc1OC | inconclusive: 16.4 µM [inhibitor, partial curve]
25 | CCC(Sc1nc2ccccc2c(=O)[nH]1)C(=O)O (centres undefined) | inconclusive: 13 µM [activator, partial curve, poor fit]
26 | CN(C)c1nc(C(N)=O)nc(N2CCOCC2)n1 | inactive
27 | O=C(CSCc1ccc(Cl)cc1)Nc1ccc(-c2nnc(-c3ccccc3)o2)cc1 | inactive
28 | CC(=O)/C(C#N)=C1\NC(=O)[C@H](Cc2ccccc2Cl)S1 | inconclusive: 1 µM [inhibitor, full curve, poor fit]
29 | Brc1ccccc1OCCOc1cccc2cccnc12 | inconclusive: 0.794 µM [activator, partial curve, poor fit]
30 | Cc1cc2cc(CN(Cc3cccs3)Cc3nnnn3CC3CCCO3)c(=O)[nH]c2cc1C (centres undefined) | inconclusive: 23.1 µM [inhibitor, partial curve, poor fit]
31 | CCCC(C(=O)NC1CCCC1)N(Cc1ccc2c(c1)OCO2)C(=O)c1snc(C(N)=O)c1N (centres undefined) | inconclusive: 25.9 µM [inhibitor, partial curve, poor fit]
32 | Cc1ccc(NC(=O)n2ccc(-c3ccc(-n4ccnc4)cc3)n2)cc1 | inconclusive: 25.1 µM [inhibitor, single point]
33 | COC(=O)C1=C(CS(=O)(=O)c2ccc(C)cc2C)NC(=O)NC1c1ccc(C)cc1 (centres undefined) | inactive
34 | Nn1c(SCc2ccccc2)nc2ccccc21 | inconclusive: 35.5 µM [inhibitor, single point]
35 | O=C(Nc1ccc(S(=O)(=O)NCc2ccco2)cc1)c1ccc(F)cc1 | inactive
36 | COc1ccc(COC(=O)c2cccc(S(=O)(=O)N3CCN(C(C)=O)CC3)c2)cc1 | inconclusive: 4.47 µM [inhibitor, full curve, poor fit]
37 | O=C(COC(=O)c1ccc2c(c1)C(=O)N(Cc1ccncc1)C2=O)Nc1cccc2ccccc12 | inconclusive: 20 µM [inhibitor, single point]
38 | O=C1NC(=O)C(=Cc2ccccc2)N1 | inconclusive: 5.62 µM [activator, single point]
39 | Cc1cc(Nc2ccccc2)nn1C(=O)c1ccc(Cl)cc1 | inactive
40 | Cc1cc(Br)ccc1SCC(=O)NCC(c1ccco1)N1CCCCC1 (centres undefined) | inconclusive: 35.5 µM [inhibitor, single point]
41 | OC(CNCC1CCCO1)Cn1c2ccc(Br)cc2c2cc(Br)ccc21 (centres undefined) | inconclusive: 10.3 µM [inhibitor, partial curve, poor fit]
42 | CC(=O)Nc1ccc(S(=O)(=O)NCCCc2ccccc2)cc1 | inconclusive: 0.891 µM [inhibitor, full curve, poor fit]
43 | CC(Sc1n[nH]c(=O)[nH]c1=O)C(=O)OCc1ccccc1 (centres undefined) | inactive
44 | OC(CN1C2=NCCN2c2ccccc21)c1ccc2c(c1)OCO2 (centres undefined) | inconclusive: 35.5 µM [inhibitor, single point]

Row | Compound | Potency
45 | NCCSSCCN | inconclusive: 0.0447 µM [inhibitor, full curve]
46 | Cc1ccc(S(=O)(=O)c2cccc(S(=O)(=O)N3CCCC3)c2)cc1S(=O)(=O)N1CCCC1 | inconclusive: 5.8 µM [inhibitor, partial curve, poor fit]
47 | CC(/C=C/c1ccc(N(C)C)cc1)=N/N=C1/NC(=O)CC(C(=O)Nc2ccc(Cl)cc2)S1 (centres undefined) | inconclusive: 5.62 µM [activator, single point]
48 | Cc1ccc(-n2c(O)c(C=Nc3ccccc3-c3n[nH]c(=S)[nH]c3=O)c3ccccc3c2=O)cc1C | inconclusive: 10 µM [inhibitor, partial curve, poor fit]
49 | COCc1ccc(C(=O)N2CCc3c([nH]c4ccccc34)C2c2ccccn2)s1 (centres undefined) | inconclusive: 31.6 µM [inhibitor, partial curve, poor fit]
50 | O=C(NCc1cccs1)c1cc(-c2cccc(Cl)c2)on1 | inconclusive: 29.1 µM [inhibitor, single point]
51 | O=C(NCCSc1ccccc1)c1ccc(Br)cc1 | inconclusive: 8.2 µM [inhibitor, partial curve, poor fit]
52 | COc1cc(CC(=O)OCC(=O)c2ccc3c(c2)OCCO3)cc(OC)c1OC | inconclusive: 1.41 µM [inhibitor, full curve, poor fit]
53 | CCn1cc([N+](=O)[O-])c(C(=O)N2N=C(c3ccc(Cl)c(Cl)c3)CC2c2ccccc2O)n1 (centres undefined) | inconclusive: 22.4 µM [inhibitor, single point]
54 | COCCNC(=O)CN(C(=O)CCC(=O)Nc1ccccn1)c1ccc(C)c(C)c1 | inactive
55 | Cc1nc2ccccc2c(=O)n1NC(=O)c1ccccc1Br | inconclusive: 5.01 µM [activator, single point]
56 | CCCCN(C)CCNC(=O)c1nn(-c2ccc(OC)c(Cl)c2)c(=O)c2c1c1ccccc1n2C | inactive
57 | NC(=O)CSc1cn(Cc2cccc(F)c2)c2ccccc12 | inconclusive: 6.31 µM [inhibitor, full curve, poor fit]
58 | CC1CN(c2ccc([N+](=O)[O-])c(NCCOc3ccccc3)c2)CC(C)N1 (centres undefined) | inconclusive: 14.1 µM [inhibitor, partial curve, poor fit]
59 | Cc1ccc(CNc2ccc3c(c2)nc(C)n3C)cc1 | inconclusive: 7.08 µM [inhibitor, partial curve, poor fit]
60 | CC1Sc2n(c3ccccc3[n+]2C)N=C1c1ccccc1 (centres undefined) | inconclusive: 7.08 µM [inhibitor, partial curve, poor fit]
61 | O=C(CSc1nc2ccccc2c(=O)[nH]1)Nc1ccc([N+](=O)[O-])cc1 | inconclusive: 10 µM [inhibitor, single point]
62 | O=C(CSc1nc2ccccc2[nH]1)Nc1nc(-c2ccc(Br)cc2)cs1 | inconclusive: 0.1 µM [activator, partial curve, poor fit]
63 | COc1ccc2[nH]c(=O)c(CN(C(=O)C3CCCO3)c3ccc(C)cc3)cc2c1 (centres undefined) | inconclusive: 35.5 µM [inhibitor, single point]
64 | COc1ccc(NC(=O)c2c(C)noc2C(C)C)cc1S(=O)(=O)N1CCCCC1 | inactive

From compound 53 up to 55, copied from above:
Row | Compound | Potency
53 | CCn1cc([N+](=O)[O-])c(C(=O)N2N=C(c3ccc(Cl)c(Cl)c3)CC2c2ccccc2O)n1 (centres undefined) | inconclusive: 22.4 µM [inhibitor, single point]
54 | COCCNC(=O)CN(C(=O)CCC(=O)Nc1ccccn1)c1ccc(C)c(C)c1 | inactive
55 | Cc1nc2ccccc2c(=O)n1NC(=O)c1ccccc1Br | inconclusive: 5.01 µM [activator, single point]
